Test results: patent publication US5965524A (Peptide Technologies Corporation, priority 1994, dated 1999)
Values joined by “and” are separate entries in the source; they are usually repeats but may differ in a detail not shown here. Equal entries are not always repeated. Some peptides are written in HELM: one residue between dots, names in brackets for other building blocks, links after the first $.

Experiment: general procedure: Fmoc solid-phase peptide synthesis; alkoxybenzyl alcohol resin; DCC/HOBT; Pfp esters
Conditions: for cyclisation yield: cyclisation step; for crude mass / isolated mass / isolated yield: whole synthesis, scale 0.37 mmol

| Substance | cyclisation yield | step yield (late stage modification step) | crude mass | isolated mass | isolated yield | crude mass (run 1) |
| --- | --- | --- | --- | --- | --- | --- |
| PEPTIDE1{[D-3-Hydroxydecanoyl].L.[dE].[D-allo-Thr].[dV].L.[dS].L.[dS].I}$PEPTIDE1,PEPTIDE1,4:R3-10:R2$$$V2.0 | 29% | 78% |  |  |  |  |
| PEPTIDE1{[D-3-Hydroxydecanoyl].L.[dE].[D-allo-Thr].[dV].L.[dS].L.[dS].I}$$$$V2.0 |  |  | 670 mg | 144 mg | 34% |  |
| Deshydroxy Viscosin | 52% |  |  |  |  |  |
| PEPTIDE1{[D-3-Hydroxydecanoyl].L.[dE].[dT].[dV].L.[dS].L.[dS].I}$$$$V2.0 |  |  |  | 41 mg | 10% | 575 mg and 290 mg |
